Results of single-concentration screens

Data taken from ChEMBL document CHEMBL3988442, “University of Dundee, Small-Polar-MMV Screening Library” (2021).

Results are given as percent effect. The record does not define 0% and 100%; most values in the screen are far below 50% and negative numbers occur (in some assays of this library far below -100). The compounds are a random part of those screened.

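Whole-parasite assay of Trypanosoma brucei over 72 hours; the read-out is not stated. Compounds at 10 µM. The record gives no direction; compounds that gave an IC50 in retests scored well above the rest, so higher reads as stronger inhibition. Values scatter widely below zero; nearly all retest evidence comes from the higher of the two concentrations used. Size under these conditions: about 2,700 compounds, about 14 of them at 50% or above in at least one test.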

With COc1cc(C(=O)N2CCCS2(=O)=O)ccc1OC(C)C the screen gave -4.758%.
With COCCc1noc(CN2CCCC2c2c(C)nn(C)c2OC)n1 (centres unmarked) the screen gave -10.77%.
With Cc1nn(C)c(N(C)C)c1CNC(C)COc1ccc(F)cc1 (centres unmarked) the screen gave -46.66%.
With Cc1ccc2c(c1)CCC2NCc1c(C)nn(C)c1N1CCOCC1.Cl (centres unmarked) the screen gave -5.482%.
With Cc1noc2ncc(C(=O)NCC3CCCO3)cc12 (centres unmarked) the screen gave -66.25%.
With CCc1nnsc1C(=O)N1CCCC1c1c(C)nn(C)c1OC (centres unmarked) the screen gave -21.14%.
With Cc1cc(NC(=O)CN2CCCC(Cn3nc(C)nc3C)C2)n(C)n1 (centres unmarked) the screen gave -19.33%.
With COC(=O)CNC(=O)c1sc(-c2ccc(Cl)s2)nc1C the screen gave -56.72%.
With CC(NC(=O)NCCCN(C)S(C)(=O)=O)c1ccc(F)cc1 (centres unmarked) the screen gave -33.23%.